Laboratory results reported in patent publication US20260317388A1, “SELECTIVE NUCLEAR BLOCKADE FOR THE TREATMENT OF SEPSIS” (priority 2023, published 2026).
Not every detail of the peptide structures is certain; ends, links or a residue may be inferred. Positions of bridges follow the written chain, without caps; N, C: chain ends. Residues, ends and D or L forms follow the SMILES beside them.

Test system: Lungs (genes responding to sepsis)
Test: Next-Generation Sequencing (NGS) of gene expression in lungs of CM-challenged mice treated with NTCI
Format: in vivo, C57Bl/6J mice
[1] = lungs of infected mice, NTCI, Saline −7
[2] = lungs of infected mice, NTCI, Saline −8
[3] = lungs of infected mice, NTCI, Saline −9
[4] = lungs of infected mice, NTCI, Saline −10
[5] = lungs of infected mice, NTCI, Saline −11
[6] = lungs of infected mice, NTCI, Saline −12
[7] = lungs of infected mice, NTCI, Saline −13
[8] = lungs of infected mice, NTCI, Saline −14
[9] = lungs of infected mice, NTCI, Saline −16
[10] = lungs of infected mice, NTCI, Saline −17
[11] = lungs of infected mice, NTCI, Saline −19
[12] = lungs of infected mice, NTCI, Saline −23
[13] = lungs of infected mice, NTCI, Saline −28
[14] = lungs of infected mice, NTCI, Saline −35

CSCC[C@@H]1NC(=O)[C@H](CC(C)C)NC(=O)[C@H](CCCCN)NC(=O)[C@H](CCC(N)=O)NC(=O)[C@H](CCCNC(=N)N)NC(=O)[C@H](CCCCN)NC(=O)[C@H](CCCNC(=N)N)NC(=O)[C@H](CCC(N)=O)NC(=O)[C@H](C(C)C)NC(=O)[C@@H](NC(=O)[C@@H]2CCCN2C(=O)[C@H](C)NC(=O)[C@H](CC(C)C)NC(=O)[C@H](CC(C)C)NC(=O)[C@H](C)NC(=O)[C@H](CC(C)C)NC(=O)[C@H](CC(C)C)NC(=O)[C@@H](NC(=O)[C@H](C)NC(=O)[C@@H]2CCCN2C(=O)[C@H](CC(C)C)NC(=O)[C@H](CC(C)C)NC(=O)[C@H](C)NC(=O)[C@@H](NC(=O)[C@H](C)NC(=O)[C@H](C)N)C(C)C)C(C)C)CSSC[C@@H](C(=O)O)NC(=O)[C@@H]2CCCN2C1=O [cSN50.1] (H-AAVALLPAVLLALLAPCVQRKRQKLMPC-OH; disulfide 17-28) gave a Gm43079 gene expression (lungs of infected mice, NTCI, Saline 423) of 1 fold, a B230303A05Rik gene expression (lungs of infected mice, NTCI, Saline 1,612) of 697 fold and a Prok2 gene expression (lungs of infected mice, NTCI, Saline 1,783) of 450 fold. For the same molecule, the Saa1 gene expression (lungs of infected mice, NTCI, Saline 1,849) was 658 fold, the Saa2 gene expression (lungs of infected mice, NTCI, Saline 3,985) was 1,338 fold and the Ano4 gene expression [1] was −2 fold. It also gave an Ighv1-7 gene expression [1] of −3 fold, an Igkv4-80 gene expression [1] of −10 fold and an Igkv17-121 gene expression [1] of −10 fold. It also gave a Ndnf gene expression [1] of −8 fold, a Rimklb gene expression [1] of −5 fold and a Slurp1 gene expression [1] of −3 fold. It also gave a Cntn4 gene expression [2] of −2 fold, a Dclk3 gene expression [2] of −16 fold and a Ddx4 gene expression [2] of −2 fold. It also gave a Gm9947 gene expression [2] of −3 fold, a Gm13816 gene expression [2] of −8 fold and a Gm26795 gene expression [2] of −2 fold. For the same molecule, the Hpcal4 gene expression [2] was −3 fold, the Ighv5-6 gene expression [2] was −67 fold and the Igkv12-89 gene expression [2] was −7 fold. It also gave an Insyn2a gene expression [2] of −3 fold, a Rbp7 gene expression [2] of −2 fold and a Slc5a12 gene expression [2] of −3 fold. The Tmem266 gene expression [2] was 1 fold, the 4833412C05Rik gene expression [3] was −3 fold and the Btnl2 gene expression [3] was −7 fold. The Colq gene expression [3] was −3 fold, the Cr2 gene expression [3] was −6 fold and the Dipk2b gene expression [3] was −11 fold. For the same molecule, the Fgf18 gene expression [3] was −6 fold, the Gm10432 gene expression [3] was −4 fold and the Gm12576 gene expression [3] was −5 fold. The Gm17334 gene expression [3] was −6 fold, the Gm48662 gene expression [3] was −7 fold and the Igkv6-17 gene expression [3] was −8 fold. It also gave a Lrrc17 gene expression [3] of −7 fold, a Slc5a11 gene expression [3] of −71 fold and a Slc22a14 gene expression [3] of −2 fold. For the same molecule, the 9030404E10Rik gene expression [4] was −12 fold, the B530045E10Rik gene expression [4] was −4 fold and the Fras1 gene expression [4] was −3 fold. For the same molecule, the Gm12159 gene expression [4] was −2 fold, the Gm48488 gene expression [4] was −2 fold and the Hmcn1 gene expression [4] was −3 fold. The Ighv1-66 gene expression [4] was −31 fold, the Igkv4-68 gene expression [4] was −15 fold and the Tmem74 gene expression [4] was −6 fold. It also gave an Abca14 gene expression [5] of −1 fold, a Gm13688 gene expression [5] of −3 fold and a Pigz gene expression [5] of −7 fold. For the same molecule, the Pla2g2e gene expression [5] was −1 fold, the Sfrp2 gene expression [5] was −7 fold and the 4930570G19Rik gene expression [6] was −3 fold. For the same molecule, the Amtn gene expression [6] was −4 fold, the Fam124b gene expression [6] was −10 fold and the Glp1r gene expression [6] was −13 fold. It also gave a Gm11574 gene expression [6] of −5 fold, a Rspo2 gene expression [6] of −18 fold and a Calcb gene expression [7] of −3 fold. For the same molecule, the E330018M18Rik gene expression [7] was −10 fold, the Gm43951 gene expression [7] was −2 fold and the Gm49727 gene expression [7] was −8 fold. It also gave a Slc26a3 gene expression [7] of −10 fold, a Trpv3 gene expression [7] of −4 fold and a Gm9767 gene expression [8] of −1 fold. The Olfr71 gene expression [8] was −13 fold, the Gm31517 gene expression (lungs of infected mice, NTCI, Saline −15) was −5 fold and the Ccdc42 gene expression [9] was −9 fold. It also gave an Igkv4-70 gene expression [9] of −14 fold, a Zfp985 gene expression [9] of −4 fold and a Lhcgr gene expression [10] of −6 fold. It also gave an Olfr1342 gene expression [10] of −136 fold, a Krtap17-1 gene expression (lungs of infected mice, NTCI, Saline −18) of −3 fold and a Gm33677 gene expression [11] of −1 fold. For the same molecule, the St6gal2 gene expression [11] was −6 fold, the Gm9918 gene expression (lungs of infected mice, NTCI, Saline −21) was −2 fold and the 0610012D04Rik gene expression [12] was −13 fold. The Gm16534 gene expression [12] was −1 fold, the Gm36569 gene expression [12] was −5 fold and the Gzmk gene expression [12] was −8 fold. The Gm47652 gene expression (lungs of infected mice, NTCI, Saline −25) was −5 fold, the Ptprh gene expression (lungs of infected mice, NTCI, Saline −26) was −14 fold and the Igkv14-130 gene expression (lungs of infected mice, NTCI, Saline −27) was −364 fold. It also gave an Ackr4 gene expression [13] of −17 fold, a Gm37858 gene expression [13] of −16 fold and a Tnfrsf17 gene expression [13] of −1 fold. The Gm50242 gene expression (lungs of infected mice, NTCI, Saline −34) was −9 fold, the Gm765 gene expression [14] was −6 fold and the Myh2 gene expression [14] was −5 fold. It also gave a Gm5639 gene expression (lungs of infected mice, NTCI, Saline −38) of −3 fold, a 1810046K07Rik gene expression (lungs of infected mice, NTCI, Saline −40) of −7 fold and a Gm25541 gene expression (lungs of infected mice, NTCI, Saline −45) of −19 fold. The Zp1 gene expression (lungs of infected mice, NTCI, Saline −53) was −14 fold, the AL935121.1 gene expression (lungs of infected mice, NTCI, Saline −54) was −2 fold and the Duxbl3 gene expression (lungs of infected mice, NTCI, Saline −71) was −2 fold. For the same molecule, the “genes increased by NTCI among genes decreased in sepsis, lungs (number)” value (lungs, infected animals, 6 h) was 589 genes, the “genes increased by NTCI among genes decreased in sepsis, lungs (percent)” value (lungs, infected animals, 6 h) was 73.3% and the “Defb42 expression, lungs of NTCI-treated mice” value (lungs, sepsis) was “not significant”. The “Mrgpra2a expression, lungs” value (lungs, sepsis) was “reduced its expression”, the “Prokr2 expression reduced to level, lungs” value (lungs, sepsis) was 4.5 fold and the “apelin receptor (Aplnr) gene expression, lungs” value (lungs, sepsis) was “increased”. For the same molecule, the “effect on Cxcl2 gene expression, lungs” value (lungs, sepsis) was “reduced”, the “lowering of Saa1 expression, lungs” value (lungs, sepsis) was 2.7 fold and the “lowering of Saa3 gene expression, lungs” value (lungs, sepsis) was “four”. For the same molecule, the “reduction of Il10 gene expression, lungs” value (lungs, sepsis) was about 20 fold, the “Fosl1 expression downregulated to level, lungs” value (lungs, sepsis (48-fold without NTCI)) was 31 fold and the “Prok2 expression reduced to level, lungs” value (lungs, sepsis (1,783-fold without NTCI)) was 450 fold. For the same molecule, the “Acod1 expression attenuated to level, lungs” value (lungs, sepsis, over the untreated control (452-fold without NTCI)) was 103 fold and the “raise of Anoctamin 5 (Ano5) gene expression” value (sepsis) was 5 fold.
